# This is one part of the list. Single values are uncertain, as repeats are few or missing.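 The apoptosis fraction was the count of cleaved-PARP antibody-stained nuclei relative to all DNA-stained nuclei, imaged in 1,536-well plates. Screening doses were set so most cells survived, and baseline and induced cleaved-PARP levels vary greatly across cell lines.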
# How the values were obtained:
# Assay in all cases: cleaved PARP positive nuclei fraction relative to DMSO control; melanoma cells; higher = more apoptosis
# Conditions in all cases: library dose: low library concentration; 72 h
# COLO792 = tested on: COLO792
# COLO800 = tested on: COLO800
# COLO829 = tested on: COLO829
# G361 = tested on: G361
# IPC-298 = tested on: IPC-298
# IST-MEL1 = tested on: IST-MEL1
# LB2518-MEL = tested on: LB2518-MEL
# LOXIMVI = tested on: LOXIMVI
# MEL-HO = tested on: MEL-HO
# MZ2-MEL = tested on: MZ2-MEL
# MeWo = tested on: MeWo
# RPMI7951 = tested on: RPMI7951
# RVH-421 = tested on: RVH-421
# SkMel28 = tested on: SkMel28
# SkMel2 = tested on: SkMel2
# SkMel30 = tested on: SkMel30
# SkMel5 = tested on: SkMel5
# UACC257 = tested on: UACC257
# UACC62 = tested on: UACC62
SMILES,cleaved PARP positive nuclei fraction (COLO792),cleaved PARP positive nuclei fraction (COLO800),cleaved PARP positive nuclei fraction (COLO829),cleaved PARP positive nuclei fraction (G361),cleaved PARP positive nuclei fraction (IPC-298),cleaved PARP positive nuclei fraction (IST-MEL1),cleaved PARP positive nuclei fraction (LB2518-MEL),cleaved PARP positive nuclei fraction (LOXIMVI),cleaved PARP positive nuclei fraction (MEL-HO),cleaved PARP positive nuclei fraction (MZ2-MEL),cleaved PARP positive nuclei fraction (MeWo),cleaved PARP positive nuclei fraction (RPMI7951),cleaved PARP positive nuclei fraction (RVH-421),cleaved PARP positive nuclei fraction (SkMel28),cleaved PARP positive nuclei fraction (SkMel2),cleaved PARP positive nuclei fraction (SkMel30),cleaved PARP positive nuclei fraction (SkMel5),cleaved PARP positive nuclei fraction (UACC257),cleaved PARP positive nuclei fraction (UACC62)
"C#Cc1cccc(Nc2ncnc3cc(OCCOC)c(OCCOC)cc23)c1 [erlotinib] + C[C@@H]1CCN(C(=O)CC#N)C[C@@H]1N(C)c1ncnc2[nH]ccc12 [CP690550] (first compound 0.8 µM, partner dose 1 µM)",118%,163%,50.4%,44.8%,194%,90%,140%,47.2%,70.2%,129%,108%,54.4%,94.4%,34.6%,78.3%,145%,81.9%,121%,143%
"C[C@@H]1CCN(C(=O)CC#N)C[C@@H]1N(C)c1ncnc2[nH]ccc12 + NCC(=O)Nc1ccc(-n2nc(C(F)(F)F)cc2-c2ccc3c(ccc4ccccc43)c2)cc1 [OSU03012] (first compound 1 µM, partner dose 1 µM)",98.9%,40.3%,88.8%,214%,156%,351%,171%,31.4%,73.1%,47.3%,346%,45.9%,67.5%,134%,219%,142%,78.4%,187%,93.7%
"C[C@]1(c2nc3c(C(N)=O)cccc3[nH]2)CCCN1 [Veliparib] + O=C(Nc1cccc(Cl)c1)Nc1ncc(CCNc2ncnc3ccsc23)s1 [SNS314] (first compound 1.4 µM, partner dose 0.0008 µM)",92.9%,75.3%,73.8%,213%,89.9%,88.7%,93.4%,171%,216%,153%,89.8%,149%,123%,260%,110%,61.8%,136%,170%,97.1%
"CC(=O)c1c(C)c2cnc(Nc3ccc(N4CCNCC4)cn3)nc2n(C2CCCC2)c1=O [palbociclib] + Cn1cncc1[C@@](N)(c1ccc(Cl)cc1)c1ccc2c(c1)c(-c1cccc(Cl)c1)cc(=O)n2C [tipifarnib] (first compound 0.04 µM, partner dose 0.01 µM)",251%,17.8%,174%,162%,56.6%,134%,70.2%,231%,86.5%,136%,49.5%,71.5%,224%,130%,76.7%,103%,195%,83.8%,212%
"Cn1nnc2c(C(N)=O)ncn2c1=O [temozolomide] + COc1cc(Nc2ncc(F)c(Nc3ccc4c(n3)NC(=O)C(C)(C)O4)n2)cc(OC)c1OC [Tamatinib] (first compound 2 µM, partner dose 0.4 µM)",211%,112%,107%,124%,77.4%,217%,112%,135%,70.8%,109%,267%,142%,254%,471%,147%,79.5%,163%,80.5%,189%
"CC1(C)NC(=O)N(c2ccc([N+](=O)[O-])c(C(F)(F)F)c2)C1=O [nilutamide] + CN(C)S(=O)(=O)c1ccc2c(c1)/C(=C/c1cc3c([nH]1)CCCC3)C(=O)N2 [SU6656] (first compound 1 µM, partner dose 0.4 µM)",65.6%,85.1%,96.4%,131%,118%,47.9%,47.5%,27.6%,32.8%,217%,216%,210%,110%,62.4%,73.6%,57.3%,138%,84.2%,92.5%
"OCc1c[nH]c2ccccc12 [Indole-3-carbinol] + CN(NC(=O)CC(=O)NN(C)C(=S)c1ccccc1)C(=S)c1ccccc1 [STA4783] (first compound 0.8 µM, partner dose 0.006 µM)",21.4%,103%,169%,138%,88.6%,164%,122%,34.8%,169%,27.8%,27.8%,59.6%,161%,60.8%,57.6%,92.7%,121%,153%,48.3%
"Cn1cncc1[C@@](N)(c1ccc(Cl)cc1)c1ccc2c(c1)c(-c1cccc(Cl)c1)cc(=O)n2C [tipifarnib] + NCC(=O)Nc1ccc(-n2nc(C(F)(F)F)cc2-c2ccc3c(ccc4ccccc43)c2)cc1 [OSU03012] (first compound 0.01 µM, partner dose 1 µM)",132%,80.2%,80.6%,3950%,156%,168%,105%,95.8%,70.7%,32.9%,308%,156%,124%,72.5%,226%,110%,74.3%,176%,304%
